PubChem BioAssay AID1224827 | NIAID – 2016

- Aim: 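Confirm genes whose knock-down changes LPS-driven TNF promoter activity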 (follow-up of hits)
- Cell system: RAW264.7 G9 mouse macrophage reporter clone
- Reagent: single siRNA against mouse genes, 100 nM siRNA
- Timing: siRNA for 2 days, then LPS about 16 h
- Conditions: bacterial lipopolysaccharide (LPS), 10 ng/ml, cells fixed after overnight (about 16 h) stimulation
- Measured: 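Imaged nuclear TNF reporter intensity, background removed, scaled per plate and to non-targeting control wells, as z-scores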
- Scale: TNF reporter z-score, mean: higher = stronger Tnf promoter reporter signal; gene median z, three same-vendor siRNAs: higher = stronger Tnf reporter signal for the gene
- Hit rule: 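An siRNA is called active when its mean z-score over replicates is at least +2 or at most -2; control wells get no call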
Shown is a random part of about 3,800 deposited reagents. About 2,200 of them (57%) count as active. 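Active means a strong reporter change in either direction; calls are per siRNA, not per gene; qiagen siRNAs gave weaker effects.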 Unmarked entries are inactive. Reagents against one gene are numbered here. Further read-outs or replicates are left out here.

How did the screen score Slc11a1 #1?
TNF reporter z-score, mean: -2.06 (active); gene median z, three same-vendor siRNAs: -2.84

With Slc11a1 #2, what does the deposit list?
TNF reporter z-score, mean: -2.68 (active); gene median z, three same-vendor siRNAs: -2.84

How did the screen score Slc11a1 #3?
TNF reporter z-score, mean: -3.23 (active); gene median z, three same-vendor siRNAs: -2.84

For Slc11a1 #4, what does the deposit list?
TNF reporter z-score, mean: 0.00946; gene median z, three same-vendor siRNAs: -0.532

With Slc11a1 #5, how do the results read?
TNF reporter z-score, mean: -0.766; gene median z, three same-vendor siRNAs: -0.532

With Slc11a1 #6, what was measured?
TNF reporter z-score, mean: -1.14; gene median z, three same-vendor siRNAs: -0.532

For Rufy3 #1, what was measured?
TNF reporter z-score, mean: 3.05 (active); gene median z, three same-vendor siRNAs: -2.44

What did the screen give for Rufy3 #2?
TNF reporter z-score, mean: -2.63 (active); gene median z, three same-vendor siRNAs: -2.44

How did the screen score Rufy3 #3?
TNF reporter z-score, mean: -3.03 (active); gene median z, three same-vendor siRNAs: -2.44

How did the screen score Rufy3 #4?
TNF reporter z-score, mean: 3.41 (active); gene median z, three same-vendor siRNAs: 0.762

For Rufy3 #5, what was measured?
TNF reporter z-score, mean: 3.08 (active); gene median z, three same-vendor siRNAs: 0.762

Which result is listed for Rufy3 #6?
TNF reporter z-score, mean: -1.59; gene median z, three same-vendor siRNAs: 0.762

With Zfp938 #1, what does the deposit list?
TNF reporter z-score, mean: 0.246; gene median z, three same-vendor siRNAs: -1.09

With Zfp938 #2, what does the deposit list?
TNF reporter z-score, mean: -1.63; gene median z, three same-vendor siRNAs: -1.09

With Zfp938 #3, how do the results read?
TNF reporter z-score, mean: -1.5; gene median z, three same-vendor siRNAs: -1.09

With Zfp938 #4, what was measured?
TNF reporter z-score, mean: 2.78 (active); gene median z, three same-vendor siRNAs: 0.00686

With Zfp938 #5, how do the results read?
TNF reporter z-score, mean: 1.78; gene median z, three same-vendor siRNAs: 0.00686

What is on record for Zfp938 #6?
TNF reporter z-score, mean: -2.16 (active); gene median z, three same-vendor siRNAs: 0.00686

How did the screen score Ncor2 #1?
TNF reporter z-score, mean: -2.78 (active); gene median z, three same-vendor siRNAs: -4.13

Which result is listed for Ncor2 #2?
TNF reporter z-score, mean: -4.13 (active); gene median z, three same-vendor siRNAs: -4.13

With Ncor2 #3, how do the results read?
TNF reporter z-score, mean: -5.99 (active); gene median z, three same-vendor siRNAs: -4.13

Which result is listed for Ncor2 #4?
TNF reporter z-score, mean: 0.566; gene median z, three same-vendor siRNAs: -1.5

How did the screen score Ncor2 #5?
TNF reporter z-score, mean: -1.31; gene median z, three same-vendor siRNAs: -1.5

For Ncor2 #6, what does the deposit list?
TNF reporter z-score, mean: -1.84; gene median z, three same-vendor siRNAs: -1.5

For Serpina1b #1, what does the deposit list?
TNF reporter z-score, mean: -2.25 (active); gene median z, three same-vendor siRNAs: -4.33

With Serpina1b #2, what was measured?
TNF reporter z-score, mean: -4.72 (active); gene median z, three same-vendor siRNAs: -4.33

Which result is listed for Serpina1b #3?
TNF reporter z-score, mean: -5.09 (active); gene median z, three same-vendor siRNAs: -4.33

Which result is listed for Serpina1b #4?
TNF reporter z-score, mean: 0.828; gene median z, three same-vendor siRNAs: -1.08

What is on record for Serpina1b #5?
TNF reporter z-score, mean: -0.675; gene median z, three same-vendor siRNAs: -1.08

For Serpina1b #6, what does the deposit list?
TNF reporter z-score, mean: -2.01 (active); gene median z, three same-vendor siRNAs: -1.08

For Med21 #1, how do the results read?
TNF reporter z-score, mean: -4.08 (active); gene median z, three same-vendor siRNAs: -4.41

With Med21 #2, what was measured?
TNF reporter z-score, mean: -4.32 (active); gene median z, three same-vendor siRNAs: -4.41

With Med21 #3, how do the results read?
TNF reporter z-score, mean: -5.61 (active); gene median z, three same-vendor siRNAs: -4.41

For Med21 #4, what does the deposit list?
TNF reporter z-score, mean: 1.59; gene median z, three same-vendor siRNAs: -0.492

How did the screen score Med21 #5?
TNF reporter z-score, mean: -0.492; gene median z, three same-vendor siRNAs: -0.492

With Med21 #6, what does the deposit list?
TNF reporter z-score, mean: -2.73 (active); gene median z, three same-vendor siRNAs: -0.492

5 entries from above in another layout.
{"target gene":"Zfp938","siRNA no.":6,"TNF reporter z-score, mean":"-2.16 (active)","gene median z, three same-vendor siRNAs":0.00686}
{"target gene":"Ncor2","siRNA no.":1,"TNF reporter z-score, mean":"-2.78 (active)","gene median z, three same-vendor siRNAs":-4.13}
{"target gene":"Ncor2","siRNA no.":2,"TNF reporter z-score, mean":"-4.13 (active)","gene median z, three same-vendor siRNAs":-4.13}
{"target gene":"Ncor2","siRNA no.":3,"TNF reporter z-score, mean":"-5.99 (active)","gene median z, three same-vendor siRNAs":-4.13}
{"target gene":"Ncor2","siRNA no.":4,"TNF reporter z-score, mean":0.566,"gene median z, three same-vendor siRNAs":-1.5}
